For some assays here: At least one read-out could not be matched to a standard name with certainty. For some assays here: For at least one compound, name, drawing or mass did not settle the structure.
Legend:
[1] = AIBN forced degradation screen of antioxidants in lestaurtinib microemulsions; format: physicochemical; conditions: AIBN screening, first experiment, thirteen formulations
Experimental: Various antioxidants were evaluated for their effectiveness in relation to the composition of the invention. In an initial experiment, capsules containing a lestaurtinib composition prepared according to the invention were placed on accelerated stability conditions. Several impurities were determined (LC-MS) to be related to the oxidation of lestaurtinib. Subsequently, a forced degradation experiment was performed using the radical initiator azoisobutyronitrile (AIBN) adapted for use with lestaurtinib. This was based on the fact that AIBN radical initiates the autoxidation mechanism that the majority of active ingredients follow for oxidation.
Using AIBN as a screening tool, a series of microemulsions prepared in accordance with the invention were formulated using different antioxidants to identify suitable solutions for preventing degradation of the composition. The first experiment used thirteen formulations using several classes of antioxidants (i.e., oxygen scavengers, sacrificial antioxidants and H-atom donors) to determine which reaction pathway was critical for disrupting the oxidation process. […]
A second experiment was then performed based on the information obtained from the first experiment. The second experiment evaluated combinations of antioxidants from different classes, different isomers of the same antioxidants, and mixtures of water-soluble and oil-soluble antioxidants.

[2] = Maximum solubility of lestaurtinib in prior solid state solution / SEDDS formulations; conditions: solid state solutions of the '176 publication

| SMILES | antioxidant effect against oxidation of lestaurtinib microemulsion [1] | maximum solubilization in solid state solutions (concentration) [2] |
| --- | --- | --- |
| Cc1cc(C(C)(C)C)c(O)c(C(C)(C)C)c1 [BHT, butylhydroxytoluene] | efficacious |  |
| C[C@]12O[C@H](C[C@]1(O)CO)n1c3ccccc3c3c4c(c5c6ccccc6n2c5c31)CNC4=O [lestaurtinib, [9S-(9α,10β,12α)]-2,3,9,10,11,12-hexahydro-10-hydroxy-10-(hydroxymethyl)-9-methyl-9,12-epoxy-1H-diindolo[1,2,3-fg:3′,2′,1′-kl]pyrrolo[3,4-i][1,6]benzodiazocin-1-one] |  | 29 mg/g |
